The values are deposited in ChEMBL (CHEMBL3988442, “University of Dundee, Small-Polar-MMV Screening Library” (2021)).

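Whole-cell growth test on Mycobacterium tuberculosis, read after 3 days in glucose-containing 7H9 medium; the read-out is not stated. Tested at 50 µM. Direction is inferred from retests: higher values go with more growth inhibition. Size under these conditions: about 69,000 compounds, about 760 of them at 50% or above in at least one test.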

Values are the deposited “Percent Effect”, in %. How 0% and 100% were set is not recorded. Most values in the screen are low, and negative values occur. The compounds are a random part of those screened. Two or more numbers in one place are separate tests of the same structure; such repeats can differ widely.

- COCC(NC(=O)c1cc[nH]n1)c1cccc(C(F)(F)F)c1 (centres undefined) | 5.176% and 13.63%
- CC(C)Cc1nc(CN2CCN(CC(O)c3ccccc3)CC2)no1 (centres undefined) | 8.894%
- COc1ccc(OCCN(C)CCCn2cnc3c(N)ncnc32)cc1 | -15.2%
- CC1(C)CN(C(=O)c2ccc3nncn3c2)CCS1 | 7.587%
- CC(Nc1cccc2c1OCCO2)C(=O)NC(N)=O (centres undefined) | -12.42%
- Cc1ccc([C@H]2CN(C(=O)C3CCC3)C[C@@H]2N)o1 | 33.08%
- CNC(=O)c1cnn2c(C3CCCN3C)ccnc12 (centres undefined) | -8.574%
- Cc1cnc(N2CCCC3(CCN(Cc4csc(C)n4)C3=O)C2)nc1.O=C(O)C(F)(F)F.O=C(O)C(F)(F)F (centres undefined) | 0.3217%
- O=C(Cn1ccc2sccc2c1=O)NCc1ccc2c(c1)OCO2 | 6.915%
- O=C(c1ccc(-n2cccn2)nc1)N1CCC(c2ccn[nH]2)C1 (centres undefined) | -6.17%
- [H][C@@]12C[C@@H](O)CN1C[C@@H](Cc1ccccc1)N(Cc1cnn(C=C)c1C)C2 | -2.472%
- O=C(O)C(F)(F)F.[H][C@@]12CN(C(=O)Cc3cccs3)C[C@]1([H])OCCN2C(C)C | -28.48% and 3.001%
- Cc1cc(C)n2nc(C(=O)N3CCCC4(CNC(=O)O4)C3)cc2n1 (centres undefined) | -1.317% and -4.224%
- O=C(O)C(F)(F)F.O=C(O)C(F)(F)F.[H][C@]12CCN(Cc3cccs3)[C@@]1([H])CC[C@H](COCc1ccccn1)O2 | -3.302%
- COc1ccc(C(=O)N2CCC(Oc3ccc(C)cc3)(C(=O)O)CC2)o1 | 5.367%
- COCC(=O)N1CCN(c2cc(-n3cccc3)nc(C)n2)CC1 | 0.6728%
- CC(C)(C#N)C(=O)Nc1nccn1Cc1ccc(Br)cc1 | -2.05%
- CCCS(=O)(=O)N1CCN(c2cc(-n3ccnc3)nc(C)n2)CC1 | 23.47%
- Cc1oc(-c2cccs2)nc1C(=O)N1CCCC1Cn1cccn1 (centres undefined) | 1.688%
- [H][C@@]12COC[C@]1([H])[C@@H](OCc1ccccn1)CN2C(=O)c1ccc[nH]1 | 15.77%
- Cc1ccc(C)c2c(O)cc(CNCc3ccc(S(N)(=O)=O)cc3)nc12 | -18.89% and -6.844%
- CN(C)C(=O)c1cc(-c2ccccc2)[nH]n1 | 0.9749%
- O=C1NCCN(CC2CC2)C12CCN(Cc1ccco1)CC2 | -27.11%
- Cc1c(C(C)NC2CCN(C(C)C)CC2)cnn1-c1ccc(F)cc1F (centres undefined) | 16.36%
- CC(NC(=O)NCCn1ccnc1)c1ccc2c(c1)OCCCO2 (centres undefined) | 3.332%
- Cc1cnc(NC(=O)CSC2CCc3ccccc3NC2=O)s1 (centres undefined) | 18.14%
- O=C(c1ccccc1)N(CC1CC1)c1cccnc1 | -12.62%
- CCOCCC1(C(=O)N2CCCC(c3ncc[nH]3)C2)CCCC1 (centres undefined) | -42.56%
- COCCNC(=O)NCCc1ccn(-c2ccccc2)n1 | 30.4%
- N#CCCN(CCC#N)C(=O)CN(C1CC1)C1CCc2ccccc21 (centres undefined) | 11.59%
- CC(C)N(Cc1ccccn1)S(=O)(=O)N1CCCC1c1ccco1 (centres undefined) | -8.863%
- Cc1ncc(CNC2CC(=O)N(CCc3ccc(F)cc3)C2)n1C (centres undefined) | -17.35%
- CCn1cc(CN(C)S(=O)(=O)c2ccc(C)c(C)c2)cn1 | 27.34%
- CC(C)N1CCC(CNC(=O)CCc2cc(F)ccc2F)C1 (centres undefined) | -0.76% and 20.92%
- [H][C@@]12C[C@H](C(=O)N3CCCCO3)CN(C(=O)c3ccncc3)[C@]1([H])CCO2 | -14.77%
- [H][C@]12CCC[C@@]1(COCC1CC1)CN(S(=O)(=O)N(C)C)C2 | 2.63% and -1.222%
- COCc1cc(NCCc2ccc(S(N)(=O)=O)cc2)n2nccc2n1 | -2.434%
- CC(C)NC(=O)CC1CC2(CCN(CC3CC3)CC2)Oc2ccccc21.O=C(O)C(F)(F)F (centres undefined) | -16.63%
- Cc1cnn(CCNCC(=O)NC2(C#N)CCCC2)c1 | 12.91%
- COCCn1ccc(=O)c(OCC(=O)Nc2ccccc2)c1C | -6.692%
- O=C(c1ccc(=O)[nH]c1)N1CCC(Oc2cccc(C(F)(F)F)c2)CC1 | -9.682% and 4.682%
- [H][C@@]12CN(Cc3c(C)noc3C)C[C@]1([H])OCCN2Cc1cnn(C)c1 | -0.2436% and 0.6628%
- Cc1ccc(C(=O)NS(C)(=O)=O)cc1I | -19.14%
- Cc1oc(C)c(C(=O)N2CCN(Cc3cscn3)CC2)c1C | -14.55%
- Cc1nc2cc(C(=O)N3CCn4c(nnc4C4CC4)C3)ccc2s1 | 11.16%
- CNC(=O)c1cccc(CN2CCC(N(C)Cc3ncc(C)o3)C2)c1 (centres undefined) | 8.886% and -39.38%
- CCOc1cccc(NS(=O)(=O)c2cc(C)c(C(=O)O)s2)c1 | 33.44%